Measurements as given in patent US20090016990A1, “Antimicrobial Compositions” (priority 2007, published 2009).
Some results were stated once for a whole list of compounds, not compound by compound.

System: Pseudomonas aeruginosa ATCC 27853
Assay: MBEC assay, biofilm inhibition (prevention of biofilm formation), MBEC bioFILM PA panel
Assay type: cell-based
Settings: in most cases

Question: For `CCC(C)(C)c1ccc(OS(=O)(=O)Cl)cc1` [compound 7], which “factor by which efficacy of antibiotics or antibiotic-combinations was increased” value is on record?
Answer: Its value is 2-4 ×.
